# Reference: patent US11850333B2, “Coatings containing multiple drugs” (MT Acquisition Holdings LLC, priority 2006, dated 2023)
# At least one compound was matched to its structure with a doubt left.
# Assay: X-Ray Diffraction (XRD) of Rapamycin/PEVA/PBMA coated stents
# Assay type: physicochemical
structure (smiles),measurement,setting,value
"CO[C@H]1C[C@@H]2CC[C@@H](C)[C@@](O)(O2)C(=O)C(=O)N2CCCC[C@H]2C(=O)O[C@H]([C@H](C)C[C@@H]2CC[C@@H](O)[C@H](OC)C2)CC(=O)[C@H](C)/C=C(\C)[C@@H](O)[C@@H](OC)C(=O)[C@H](C)C[C@H](C)/C=C/C=C/C=C/1C [Rapamycin, rapamycin]",Rapamycin remains crystalline,"Rapamycin, PEVA and PBMA coated, sintered stent, throughout the coating and sintering process",~64%
same,crystalline rapamycin (drug morphology in coated films),coated films on proxy substrates / proxy samples,+65% crystalline rapamycin on
